Reference: doi:10.1101/153304
Results are given in words; binding and its absence hold for the method and conditions named. Binding seen in cells or lysates may run through a third protein. Binding can be weak; no strength is given.

Sequences of proteins named here, by UniProt entry; tags and fusion partners are left off. A change or cut given only in a name is not applied to a line headed by its entry.
UniProt Q99996: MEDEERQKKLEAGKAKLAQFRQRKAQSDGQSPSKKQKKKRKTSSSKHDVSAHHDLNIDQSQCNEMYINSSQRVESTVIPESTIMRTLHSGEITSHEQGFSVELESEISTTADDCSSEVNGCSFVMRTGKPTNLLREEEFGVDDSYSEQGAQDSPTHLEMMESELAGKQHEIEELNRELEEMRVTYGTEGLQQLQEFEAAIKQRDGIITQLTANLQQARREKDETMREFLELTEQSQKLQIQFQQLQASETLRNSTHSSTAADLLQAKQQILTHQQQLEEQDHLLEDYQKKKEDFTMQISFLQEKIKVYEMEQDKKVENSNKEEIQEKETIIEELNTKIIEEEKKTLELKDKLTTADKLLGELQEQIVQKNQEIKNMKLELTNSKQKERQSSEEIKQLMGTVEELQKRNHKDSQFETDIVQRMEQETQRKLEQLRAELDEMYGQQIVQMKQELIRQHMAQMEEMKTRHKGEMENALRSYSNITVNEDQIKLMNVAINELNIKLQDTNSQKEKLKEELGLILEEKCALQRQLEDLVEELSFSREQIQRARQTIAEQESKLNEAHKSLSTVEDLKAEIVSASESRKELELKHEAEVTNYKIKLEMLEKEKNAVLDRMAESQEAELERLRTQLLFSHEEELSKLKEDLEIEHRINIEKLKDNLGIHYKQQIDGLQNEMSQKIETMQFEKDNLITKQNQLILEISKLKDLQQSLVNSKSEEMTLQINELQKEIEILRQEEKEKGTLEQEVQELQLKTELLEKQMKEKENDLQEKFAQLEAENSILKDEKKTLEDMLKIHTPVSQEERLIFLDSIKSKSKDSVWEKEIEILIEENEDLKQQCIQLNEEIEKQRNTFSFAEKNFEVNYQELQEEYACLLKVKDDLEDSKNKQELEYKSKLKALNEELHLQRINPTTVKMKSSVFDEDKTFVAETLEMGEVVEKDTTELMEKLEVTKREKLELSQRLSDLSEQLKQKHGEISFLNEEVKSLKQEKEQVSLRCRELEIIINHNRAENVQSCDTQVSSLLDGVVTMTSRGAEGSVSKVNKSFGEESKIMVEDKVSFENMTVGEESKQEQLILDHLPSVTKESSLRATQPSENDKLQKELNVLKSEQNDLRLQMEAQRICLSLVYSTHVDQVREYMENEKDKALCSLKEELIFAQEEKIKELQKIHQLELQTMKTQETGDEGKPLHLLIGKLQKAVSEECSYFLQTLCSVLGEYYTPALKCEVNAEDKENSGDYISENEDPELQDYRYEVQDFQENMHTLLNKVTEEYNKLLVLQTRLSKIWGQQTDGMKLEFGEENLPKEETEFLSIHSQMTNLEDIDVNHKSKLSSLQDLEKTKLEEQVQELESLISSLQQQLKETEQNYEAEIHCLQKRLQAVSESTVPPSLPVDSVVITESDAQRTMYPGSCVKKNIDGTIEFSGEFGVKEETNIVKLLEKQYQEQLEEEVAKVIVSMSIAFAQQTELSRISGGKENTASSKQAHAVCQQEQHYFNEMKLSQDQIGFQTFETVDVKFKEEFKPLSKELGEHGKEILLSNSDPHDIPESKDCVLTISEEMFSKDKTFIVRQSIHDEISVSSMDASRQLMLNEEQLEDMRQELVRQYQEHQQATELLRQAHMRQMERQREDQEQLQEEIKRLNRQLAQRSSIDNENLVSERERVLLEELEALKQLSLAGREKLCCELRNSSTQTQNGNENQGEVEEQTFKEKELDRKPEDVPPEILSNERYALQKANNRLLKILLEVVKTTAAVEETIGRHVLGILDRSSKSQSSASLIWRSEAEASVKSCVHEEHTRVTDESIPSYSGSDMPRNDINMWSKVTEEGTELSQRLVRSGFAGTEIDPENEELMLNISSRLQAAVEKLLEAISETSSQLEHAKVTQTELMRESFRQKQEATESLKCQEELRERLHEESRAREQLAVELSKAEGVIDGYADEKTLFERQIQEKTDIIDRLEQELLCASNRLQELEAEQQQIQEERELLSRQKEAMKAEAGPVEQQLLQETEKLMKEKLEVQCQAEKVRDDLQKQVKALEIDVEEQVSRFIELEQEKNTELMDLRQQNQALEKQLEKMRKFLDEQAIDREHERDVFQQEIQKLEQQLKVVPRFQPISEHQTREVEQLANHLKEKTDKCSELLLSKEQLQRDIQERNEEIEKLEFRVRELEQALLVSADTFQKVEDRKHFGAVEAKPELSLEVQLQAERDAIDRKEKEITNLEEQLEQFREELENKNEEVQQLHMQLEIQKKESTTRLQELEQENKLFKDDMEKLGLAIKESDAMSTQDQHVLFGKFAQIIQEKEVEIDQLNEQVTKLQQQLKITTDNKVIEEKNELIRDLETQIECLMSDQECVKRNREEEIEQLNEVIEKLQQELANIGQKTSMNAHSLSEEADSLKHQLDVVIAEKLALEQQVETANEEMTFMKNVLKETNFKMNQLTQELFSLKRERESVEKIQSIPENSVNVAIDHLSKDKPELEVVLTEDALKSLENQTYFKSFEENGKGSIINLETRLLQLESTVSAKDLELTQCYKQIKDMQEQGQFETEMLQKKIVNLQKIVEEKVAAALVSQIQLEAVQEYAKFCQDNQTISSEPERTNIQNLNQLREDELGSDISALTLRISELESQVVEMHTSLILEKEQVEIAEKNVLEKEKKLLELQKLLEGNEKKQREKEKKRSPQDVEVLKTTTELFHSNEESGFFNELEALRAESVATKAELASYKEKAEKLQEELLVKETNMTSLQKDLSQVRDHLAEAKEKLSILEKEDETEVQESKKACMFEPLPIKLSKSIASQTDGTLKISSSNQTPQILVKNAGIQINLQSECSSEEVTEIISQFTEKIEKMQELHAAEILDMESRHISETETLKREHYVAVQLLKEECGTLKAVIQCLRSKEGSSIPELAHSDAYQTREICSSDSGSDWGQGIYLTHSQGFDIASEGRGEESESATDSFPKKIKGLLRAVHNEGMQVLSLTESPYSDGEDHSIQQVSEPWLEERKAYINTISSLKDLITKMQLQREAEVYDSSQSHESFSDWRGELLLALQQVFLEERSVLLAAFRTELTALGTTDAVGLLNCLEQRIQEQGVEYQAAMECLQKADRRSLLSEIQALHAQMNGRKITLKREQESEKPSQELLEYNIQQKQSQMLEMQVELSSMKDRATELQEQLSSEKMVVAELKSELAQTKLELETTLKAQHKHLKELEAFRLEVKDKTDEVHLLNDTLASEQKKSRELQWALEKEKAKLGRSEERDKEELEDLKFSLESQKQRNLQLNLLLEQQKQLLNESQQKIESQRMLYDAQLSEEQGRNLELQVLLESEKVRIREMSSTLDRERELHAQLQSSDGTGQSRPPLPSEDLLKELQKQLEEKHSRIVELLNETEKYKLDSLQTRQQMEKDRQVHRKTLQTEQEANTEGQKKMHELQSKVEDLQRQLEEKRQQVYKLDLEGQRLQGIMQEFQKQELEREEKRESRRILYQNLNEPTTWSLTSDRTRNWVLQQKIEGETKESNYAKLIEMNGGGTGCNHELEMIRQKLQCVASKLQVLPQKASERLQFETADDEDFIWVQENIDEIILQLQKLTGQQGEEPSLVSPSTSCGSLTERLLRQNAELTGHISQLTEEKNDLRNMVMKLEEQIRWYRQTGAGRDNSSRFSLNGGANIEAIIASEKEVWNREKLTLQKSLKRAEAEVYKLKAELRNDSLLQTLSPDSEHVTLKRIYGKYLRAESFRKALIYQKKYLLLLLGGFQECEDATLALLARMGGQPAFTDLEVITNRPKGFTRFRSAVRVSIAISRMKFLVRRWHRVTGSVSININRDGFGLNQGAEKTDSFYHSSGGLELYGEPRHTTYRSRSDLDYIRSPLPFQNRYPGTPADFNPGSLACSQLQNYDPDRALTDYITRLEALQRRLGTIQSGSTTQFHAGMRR
UniProt P23258: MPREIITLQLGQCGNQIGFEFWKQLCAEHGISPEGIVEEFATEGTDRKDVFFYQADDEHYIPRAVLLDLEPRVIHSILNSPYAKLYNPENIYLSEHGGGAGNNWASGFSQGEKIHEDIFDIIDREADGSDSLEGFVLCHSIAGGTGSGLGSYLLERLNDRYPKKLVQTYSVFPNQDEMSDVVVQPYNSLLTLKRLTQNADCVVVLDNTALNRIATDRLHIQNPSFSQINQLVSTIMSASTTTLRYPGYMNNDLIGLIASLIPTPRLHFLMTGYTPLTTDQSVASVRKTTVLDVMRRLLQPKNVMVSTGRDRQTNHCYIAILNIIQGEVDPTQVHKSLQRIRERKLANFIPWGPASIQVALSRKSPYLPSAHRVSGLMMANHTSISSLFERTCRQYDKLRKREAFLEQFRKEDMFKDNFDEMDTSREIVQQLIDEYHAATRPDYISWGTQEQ

Biological target: AKAP450 (human (endogenous in hTERT-RPE1 or HeLa; cell line of the co-IP not stated)) (UniProt Q99996)
Test: co-IP

- binding: binds
Substance: γ-tubulin (from UniProt P23258)
